Measurements: PMC4145329 (Marine Drugs, 2014)

Experiment: general procedure: solution-phase peptide synthesis; DEPBT/DIEA; cyclisation with DEPBT, HATU, TBTU and DIEA
Conditions: for cyclisation yield: cyclisation step; for step yield: coupling step

Substance	cyclisation yield	step yield
Cyclo(D-Phe-N-Me-Leu-Leu-N-Me-Leu-D-Leu)	42.5%	–
Cyclo(Leu-D-N-Me-Phe-D-Leu-D-N-Me-Leu-D-Leu)	47.0%	–
Cyclo(Me-D-Leu-Leu-D-Leu-Me-D-Phe-Leu)	43.3%	–
Cyclo(Me-D-Leu-Leu-Leu-Me-D-Phe-Leu)	44.5%	–
Cyclo(Phe-N-Me-Leu-Leu-N-Me-Leu-Leu)	42.0%	–
N-Boc-Me-D-Leu-D-Leu-Leu-D-Phe-D-Leu-OBn	–	82.5%
N-Boc-Me-D-Leu-Leu-D-Leu-D-Phe-Leu-OBn	–	81.5%
N-Boc-Me-D-Leu-Leu-Leu-D-Phe-Leu-OBn	–	82.5%
N-Boc-Me-Leu-Leu-D-Phe-Me-Leu-Leu-OBn	–	81.0%
N-Boc-Me-Leu-Leu-Phe-Me-Leu-LeuOBn	–	78.6%
